The assay addresses T1, GST-Abp1p (S. cerevisiae) (UniProt P15891).
T1 sequence: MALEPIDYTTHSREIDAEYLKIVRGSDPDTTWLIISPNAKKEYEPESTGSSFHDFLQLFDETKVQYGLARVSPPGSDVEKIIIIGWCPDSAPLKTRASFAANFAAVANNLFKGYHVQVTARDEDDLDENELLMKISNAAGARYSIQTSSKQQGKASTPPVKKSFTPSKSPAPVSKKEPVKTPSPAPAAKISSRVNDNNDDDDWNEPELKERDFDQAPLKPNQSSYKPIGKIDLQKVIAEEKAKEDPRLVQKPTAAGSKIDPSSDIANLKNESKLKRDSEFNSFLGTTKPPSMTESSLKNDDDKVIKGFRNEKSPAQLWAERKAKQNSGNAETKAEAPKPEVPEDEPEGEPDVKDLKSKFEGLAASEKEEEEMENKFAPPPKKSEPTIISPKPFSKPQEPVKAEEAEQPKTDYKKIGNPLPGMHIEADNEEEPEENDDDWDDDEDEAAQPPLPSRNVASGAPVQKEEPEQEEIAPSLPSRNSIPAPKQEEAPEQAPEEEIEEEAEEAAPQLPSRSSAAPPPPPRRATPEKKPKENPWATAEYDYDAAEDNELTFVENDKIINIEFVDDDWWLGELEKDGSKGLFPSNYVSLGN
The experiment in a line: pull-down; protein extracts of yeast co-expressing GST-Abp1p and Xpress-Wbm0076 incubated with glutathione agarose 5 h at 4 C; 1x PBS, 1 mM PMSF, protease inhibitors, 1% Triton X-100; washed 5 times; immunoblot anti-Xpress and anti-GST. A general note: Immunoblotting shows a protein as a band on a membrane.

No constants are given. Whether binding was seen depends on the method and setting. In cells and extracts the contact can be indirect. Binding can be weak; no strength is given. Sequences can lack the tags named with a protein.

As for “Wbm0076 (containing an N-terminal Xpress epitope) (Wolbachia endosymbiont of Brugia malayi)”, the binding result was “binds”.

For the origin of these results see paper PMC9980815.
